This experiment has as its target 5-hydroxytryptamine receptor 2B (Homo sapiens, UniProt P41595).

By UniProt entry, the sequences of proteins in these tests, tags left out.
UniProt P41595, whole entry: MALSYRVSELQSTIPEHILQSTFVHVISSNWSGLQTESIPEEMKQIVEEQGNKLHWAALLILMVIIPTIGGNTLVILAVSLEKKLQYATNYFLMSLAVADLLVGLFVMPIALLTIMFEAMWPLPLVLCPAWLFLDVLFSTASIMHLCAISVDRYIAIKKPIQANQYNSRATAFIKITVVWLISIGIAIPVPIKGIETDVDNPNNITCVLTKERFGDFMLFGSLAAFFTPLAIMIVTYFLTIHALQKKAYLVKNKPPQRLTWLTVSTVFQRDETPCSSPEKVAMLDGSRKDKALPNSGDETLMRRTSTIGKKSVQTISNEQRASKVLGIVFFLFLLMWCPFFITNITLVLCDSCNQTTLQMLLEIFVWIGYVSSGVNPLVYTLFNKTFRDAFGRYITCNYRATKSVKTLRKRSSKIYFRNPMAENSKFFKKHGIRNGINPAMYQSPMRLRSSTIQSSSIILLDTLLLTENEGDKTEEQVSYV

pKi: −log10 of the molar value. Values joined by “and” are separate entries in the source; they are usually repeats but may differ in a detail not shown here. Identical values can stand only once.

A word on the pKi: it is −log10 of the Ki, conventionally taken in molar units. A lower pKi goes with a large Ki. As to `CC[C@@H](CO)NC(=O)[C@@H]1C=C2c3cccc4c3c(cn4C)C[C@H]2N(C)C1`, the pKi was 8.82 and 9.19.

The values are drawn from BindingDB's records for doi:10.1007/pl00005133 (Eli Lilly, 1998).
